Assay [1] has as its target T1, mCherry-tagged SLC25A10 S3 domain (amino acids 191-287) (UniProt Q9UBX3).
T1 sequence: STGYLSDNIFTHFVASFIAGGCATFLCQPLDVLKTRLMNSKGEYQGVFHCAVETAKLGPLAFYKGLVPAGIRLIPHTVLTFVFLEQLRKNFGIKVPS
The experiment in a line: co-IP; HEK 293T cells co-transfected with HA-p62 and mCherry-tagged full-length or truncated SLC25A10, immunoprecipitated.

Assay [2] addresses T2, SLC25A10 (mitochondrial dicarboxylate carrier) (human (endogenous in PC-3 and 22RV1)) (UniProt Q9UBX3).
T2 sequence: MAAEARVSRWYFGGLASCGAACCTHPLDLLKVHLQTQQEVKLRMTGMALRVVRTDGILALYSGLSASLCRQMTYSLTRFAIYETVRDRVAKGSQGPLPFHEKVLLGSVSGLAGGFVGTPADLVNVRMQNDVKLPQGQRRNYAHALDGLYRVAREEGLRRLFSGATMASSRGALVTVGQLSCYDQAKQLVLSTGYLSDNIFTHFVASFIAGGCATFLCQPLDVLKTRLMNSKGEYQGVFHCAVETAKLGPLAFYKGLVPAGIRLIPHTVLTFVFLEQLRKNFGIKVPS
Nature of the assay: co-IP; PC-3 and 22RV1 lysates (50 mM Tris-HCl, 150 mM NaCl, 1% NP-40, 1 mM EDTA); IP with anti-SLC25A10 antibody or, reciprocally, p62 antibody (control IgG), protein A/G agarose, 4 °C overnight; Western blot.

The target of a further assay is T3, Flag-tagged SLC25A10 (UniProt Q9UBX3).
T3 sequence: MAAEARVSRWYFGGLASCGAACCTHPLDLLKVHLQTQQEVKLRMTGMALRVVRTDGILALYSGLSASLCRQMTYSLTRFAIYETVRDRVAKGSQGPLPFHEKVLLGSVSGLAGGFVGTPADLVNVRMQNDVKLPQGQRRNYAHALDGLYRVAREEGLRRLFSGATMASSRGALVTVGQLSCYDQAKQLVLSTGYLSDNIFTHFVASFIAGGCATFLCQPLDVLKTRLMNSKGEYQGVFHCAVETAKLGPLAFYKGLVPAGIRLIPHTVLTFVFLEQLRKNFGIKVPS
Nature of the assay: co-IP; HEK293T cells overexpressing Flag-tagged SLC25A10 and Myc-tagged p62; immunoprecipitates analysed by Western blot with anti-Myc and anti-Flag antibodies.

For assay [3], the target named is SQSTM1 (p62), endogenous (human (endogenous in PC-3 and 22RV1)) (UniProt Q13501). The experiment in a line: co-IP; PC-3 and 22RV1 lysates (50 mM Tris-HCl, 150 mM NaCl, 1% NP-40, 1 mM EDTA); IP with anti-SLC25A10 antibody or, reciprocally, p62 antibody (control IgG), protein A/G agarose, 4 °C overnight; Western blot.

From publication PMC12092617 come the findings set out here.

These are yes or no findings as the source states them, for the method shown. In cells and extracts the contact can be indirect. Some binding calls cover weakened binding; strength is not graded here. For some of these results: Where a sequence is shown, tags or fusion partners need not be part of it.

Regarding “HA-tagged p62 (from UniProt Q13501 1-440)”, the binding entry in assay [1] is on record as “binds”. For the molecule “SQSTM1 (p62), endogenous (from UniProt Q13501 1-440)”, the binding result in assay [2] is listed as “binds”.

Regarding “Myc-tagged p62 (from UniProt Q13501 1-440)”, the binding result in the assay with Flag-tagged SLC25A10 is recorded as “binds”.

B1: SLC25A10 (mitochondrial dicarboxylate carrier) (protein, UniProt Q9UBX3 1-287)
chain: MAAEARVSRWYFGGLASCGAACCTHPLDLLKVHLQTQQEVKLRMTGMALRVVRTDGILALYSGLSASLCRQMTYSLTRFAIYETVRDRVAKGSQGPLPFHEKVLLGSVSGLAGGFVGTPADLVNVRMQNDVKLPQGQRRNYAHALDGLYRVAREEGLRRLFSGATMASSRGALVTVGQLSCYDQAKQLVLSTGYLSDNIFTHFVASFIAGGCATFLCQPLDVLKTRLMNSKGEYQGVFHCAVETAKLGPLAFYKGLVPAGIRLIPHTVLTFVFLEQLRKNFGIKVPS
For the molecule B1, the binding entry in assay [3] is given as “binds”.
